In PubChem BioAssay AID1347426 (Functional Genomics Laboratory (NCATS/FGL), 2020):
Screen size: about 31,000 sequences; about 1,400 (4.5%) were called active.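 Rule for the calls: active = median seed-adjusted z-score above 1 or below -1; inactive = the rest.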 The list shows a part of the results.

Experiment: Novel Modifiers of Survival Motor Neuron (SMN) Protein: Gene Identification via Genome-wide siRNA Screen;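 note: luminescence tracks full-length SMN protein made from the SMN2 reporter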
Conditions: HEK293T SMN2-luciferase reporter, siRNA knockdown, 72 h; actives lie on both sides
Source text: Spinal muscular atrophy (SMA) is the most common neuromuscular autosomal recessive disorder and one of the leading genetic causes of infant death. SMA results from mutations inducing loss of function or deletion in the survival of motor neuron-1 gene (SMN1), leading to deficiency of the survival motor neuron (SMN) protein. Although a second nearly identical gene, SMN2, is retained in humans, its expression primarily produces an aberrantly spliced isoform that is largely unstable and quickly degraded. We performed a genome-wide RNAi screen using a cell-based reporter assay to identify genes and pathways that modulate SMN protein stability. The screen identified over 200 genes that led to the greatest increase or decrease in luciferase expression.
Using HEK293T cells stably expressing a luciferase reporter that combines the promoter and splicing based cassettes in tandem with the major portion of the native SMN2 cDNA with luciferase, we performed a genome-wide RNAi screen to identify modulators of SMN protein levels. Luciferase is expressed when full-length SMN protein is generated with luminescence signal proportional to SMN protein levels. Our luciferase-based reporter assay was used to screen Ambion Silencer Select Human Druggable Genome siRNA library (10418 genes, 3 unique siRNAs per gene) using lipid-based reverse transfection.
Briefly, 1 pmol of each siRNA was spotted to a well of a 384-well plate (Corning, Corning, NY) and 20 microL of serum-free DMEM containing […] of Lipofectamine RNAiMax (Life Technologies, Carlsbad, CA) was then added to each well. Transfected cells were maintained at 37 degrees C in 5% CO2 for 72 hours, 20 microL of ONE-Glo Reagent (Promega) was added to wells for luciferase quantification. Raw luminescence reads were normalized to Ambion(R) Silencer(R) Negative Control #2 siRNA, then log10 transformed. A robust statistical measure of median absolute deviation (MAD) to standardize siRNA activities from each screen. Common Seed Analysis was used to help prioritize clean hits as opposed to those appearing to arise from seed based off-target effects. Candidate modulators were defined as the genes having a MAD score greater than 1.0 or less than -1.0.

Row | Sequence | median seed-adjusted z-score
1 | GCCUGUCCAGGAUCGUGAATT against CTRB1 | inactive: -0.214
2 | GGAGCUCUCUUUGUUGGAATT against ERAL1 | inactive: -0.46
3 | CUAUAGAUGUGAUCAGUGUTT against ZNF32 | inactive: 0.034
4 | GGAGGCUAUUCAUAAGGUATT against GTF3C2 | inactive: 0.32
5 | GGAAAUCUCCUGCUCGAAATT against PIP5K3 | inactive: 0.00523
6 | GACUCUAAGUGAGACUGAATT against LRFN1 | inactive: 0.605
7 | CCUUUGUCAAAGAAUCGAATT against DNAJC9 | inactive: 0.0545
8 | GCAAUUUCUUGUUUCGUUATT against SLC9A6 | inactive: -0.0831
9 | UGAUUGCUUUCAAACUGGATT against PCBP4 | inactive: -0.269
10 | GGAACAAAUAACCACGAAATT against PAFAH1B2 | inactive: 0.0991
11 | GCGUGGUCAACGAUCUGUATT against FAM84B | inactive: -0.431
12 | CCUACUUACCAGCCCUUGATT against SPAG6 | inactive: -0.439
13 | GAGCUGACGUGAGAAAUAUTT against B3GNT3 | inactive: 0.439
14 | CAACUAUGCAGACUAUUCATT against SYT13 | inactive: 0.275
15 | GAAAGACAACCAUCCUGAATT against ARL2 | inactive: 0.0301
16 | GGCCUAUGCAAAAAGAGGATT against BAD | inactive: 0
17 | AAUUCGAUAUGUUCAGCAATT against GPX4 | active: -1.18
18 | CCCAAAUUCUGGUAACAGUTT against PCDHGA6 | inactive: 0.0559
19 | GGAUUUGCCUCUCGAGAUATT against ABCB11 | inactive: 0.14
20 | GCAAAGCUCUAAAGCCCAATT against TXNDC12 | inactive: -0.154
21 | GUCUGAUGAUCACAAAAUATT against RRAGC | inactive: -0.557
22 | GCCUGAAAGGUGUAGACUUTT against ETS1 | inactive: -0.0588
23 | UAAGAACACCGUUACCCAATT against NLGN4X | inactive: -0.1

Row | Sequence | median seed-adjusted z-score
24 | GGAAAAACAUGACUAGCAATT against EYA3 | inactive: -0.0191
25 | CAUUCGUCGUAACUUUACATT against MIPEP | inactive: -0.169
26 | CAACAUGGAUGGUCAAGGATT against IL6R | inactive: -0.441
27 | GCCUUACCUGGAGAACUGATT against VPS26A | active: -1.55
28 | CCAACUAUCCCAGCAAGUATT against NETO1 | inactive: 0.0504
29 | GGAGAUAUCCAUGCUAUAATT against CDH8 | inactive: 0.169
30 | GGACGAGCCUCAUGAAUGATT against SEC11B | active: 1.04
31 | GCUGGAUCACGAACAGGUATT against SAE1 | inactive: 0.831
32 | CAAAGAUCCAAGACUAUCATT against JAK2 | inactive: 0.163
33 | GUAGGACUCUCAUUCGGGATT against CCND1 | inactive: -0.912
34 | GCUUCACACUGAAUAGACATT against ZNF17 | inactive: 0.579
35 | CAAUAAGACCUAUUCAACUTT against SNAI2 | inactive: 0
36 | GGACAAAUCAGAGCUUAAATT against G3BP1 | inactive: -0.593
37 | GUGAAACCCGAGUAUCUUATT against ZADH2 | inactive: -0.47
38 | CAGCAUACGUAGGAAAUCUTT against EIF4H | inactive: 0.0349
39 | GUACAGGCCCUACAUCAUUTT against LRP5 | active: -1
40 | CGUGUGCGACAGUGACAUATT against RCAN2 | inactive: -0.185
41 | CAUCGGAAAGACAAACUAUTT against ZNF699 | inactive: -0.428
42 | CCUACAUCACGGAAACGGATT against PTPN3 | inactive: -0.535
43 | GGUGGGUGGUAAGAGGGAATT against AQP2 | inactive: -0.433
44 | GAACCAACACGGAAAGAAATT against RRAS2 | inactive: -0.0229
45 | CCAUCACCCAUGUUCGAGATT against GRIK3 | inactive: 0.128
46 | GCAGCACGAAGGAUACUGATT against ABCA4 | active: -1.09

Quoted from the listing:
median seed-adjusted z-score, CAAAGAUCCAAGACUAUCATT against JAK2 reads inactive: 0.163
median seed-adjusted z-score, CCAUCACCCAUGUUCGAGATT against GRIK3 reads inactive: 0.128
median seed-adjusted z-score, GGAAAAACAUGACUAGCAATT against EYA3 reads inactive: -0.0191
median seed-adjusted z-score, CGUGUGCGACAGUGACAUATT against RCAN2 reads inactive: -0.185
median seed-adjusted z-score, CCAACUAUCCCAGCAAGUATT against NETO1 reads inactive: 0.0504

(continued)

Row | Sequence | median seed-adjusted z-score
47 | CUUUAAACAAUUCCGUUUATT against GABRG3 | inactive: 0
48 | CAAGAACUAUUCUUAUGCATT against ITSN1 | inactive: 0.00218
49 | CCAACCAUGUGACACCUUUTT against AUP1 | inactive: 0.305
50 | CACUAGCCUUGGAAUUGGATT against TREH | inactive: 0.396
51 | CAUAUUAACCGGUGGAGAATT against EMX2 | inactive: 0.324
52 | GAGGACAACUUGUACAAGATT against ITGB2 | inactive: -0.765
53 | CCCGUACUACAUAUAAGAATT against ZNF506 | inactive: -0.235
54 | GGACUUGUGCAGAAAAUCATT against NELL2 | inactive: 0.0918
55 | GGAGAGACGUGUCAGACGATT against HCCA2 | inactive: 0.862
56 | GACUGACCAGGGCAUCAAATT against CAT | inactive: 0
57 | GCUCCGAUUUUAUUCGCAUTT against CD27 | inactive: 0.5
58 | GCAUCGUGCUGAUCGGCAUTT against ITGB2 | inactive: -0.765
59 | GAAGCUGGAUCGCUACUCATT against KCNH2 | inactive: 0.1
60 | GGAUGGUGACUUGAAGGAATT against CHST8 | inactive: 0.341
61 | GGUGGUCUCUUCAUCCGAATT against GRIA4 | inactive: 0
62 | GUAAAUCACCGGCUACAAATT against ITGA3 | inactive: 0
63 | CCUCACUCAUGGAACUUAATT against PRCP | inactive: -0.481
64 | GAAUAUCUACAAAAUCGAATT against NOP58 | inactive: 0.101
65 | ACAGGAACAUGGUCUUGCUTT against ZNF789 | inactive: 0.0534
66 | GGCUGUAAACGAUACUGGATT against MSH6 | inactive: -0.182
67 | GAAAGGCCUUUAGCUUGUATT against ZNF573 | inactive: -0.169
68 | CAUCGGUGUUCGAGAAGUATT against RHOF | inactive: 0.0711
69 | GGAAAUACUCUUUAAUCCUTT against ACTR6 | inactive: 0.189
